Results are given in words; binding and its absence hold for the method and conditions named. Binding seen in cells or lysates may run through a third protein. A yes stands for co-enrichment or nearness to the bait. Other partners may have been found.

Protein sequences, listed by entry. Tags and fused reporters are not part of them. Residues count along the entry.
UniProt P52948, residues 1-880: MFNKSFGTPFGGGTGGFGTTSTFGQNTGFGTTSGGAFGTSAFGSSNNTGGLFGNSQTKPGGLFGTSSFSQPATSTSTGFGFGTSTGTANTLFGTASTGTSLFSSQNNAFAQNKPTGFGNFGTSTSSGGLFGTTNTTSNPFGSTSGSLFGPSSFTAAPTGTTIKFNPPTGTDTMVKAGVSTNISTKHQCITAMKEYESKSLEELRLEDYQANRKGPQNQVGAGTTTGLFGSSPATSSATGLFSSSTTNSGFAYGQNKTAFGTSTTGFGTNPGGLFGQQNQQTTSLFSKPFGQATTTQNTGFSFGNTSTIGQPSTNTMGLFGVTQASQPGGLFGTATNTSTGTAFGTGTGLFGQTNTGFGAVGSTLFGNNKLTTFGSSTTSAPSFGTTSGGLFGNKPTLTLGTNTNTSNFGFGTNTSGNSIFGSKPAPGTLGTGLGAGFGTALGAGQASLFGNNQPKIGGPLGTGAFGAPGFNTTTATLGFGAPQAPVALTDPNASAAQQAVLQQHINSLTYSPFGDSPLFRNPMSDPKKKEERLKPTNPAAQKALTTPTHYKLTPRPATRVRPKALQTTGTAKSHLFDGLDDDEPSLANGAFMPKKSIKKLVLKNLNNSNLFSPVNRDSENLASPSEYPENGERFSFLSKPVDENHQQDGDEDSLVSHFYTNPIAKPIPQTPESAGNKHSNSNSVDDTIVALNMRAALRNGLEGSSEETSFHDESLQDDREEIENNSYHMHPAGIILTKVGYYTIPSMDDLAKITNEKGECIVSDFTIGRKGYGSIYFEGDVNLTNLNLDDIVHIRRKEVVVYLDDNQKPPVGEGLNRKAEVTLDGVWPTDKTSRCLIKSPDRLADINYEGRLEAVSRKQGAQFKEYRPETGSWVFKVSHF

This is an account of results in article PMC11065896.

B1: Sec31A (protein, UniProt O94979 1-1220)
chain: MKLKEVDRTAMQAWSPAQNHPIYLATGTSAQQLDATFSTNASLEIFELDLSDPSLDMKSCATFSSSHRYHKLIWGPYKMDSKGDVSGVLIAGGENGNIILYDPSKIIAGDKEVVIAQNDKHTGPVRALDVNIFQTNLVASGANESEIYIWDLNNFATPMTPGAKTQPPEDISCIAWNRQVQHILASASPSGRATVWDLRKNEPIIKVSDHSNRMHCSGLAWHPDVATQMVLASEDDRLPVIQMWDLRFASSPLRVLENHARGILAIAWSMADPELLLSCGKDAKILCSNPNTGEVLYELPTNTQWCFDIQWCPRNPAVLSAASFDGRISVYSIMGGSTDGLRQKQVDKLSSSFGNLDPFGTGQPLPPLQIPQQTAQHSIVLPLKKPPKWIRRPVGASFSFGGKLVTFENVRMPSHQGAEQQQQQHHVFISQVVTEKEFLSRSDQLQQAVQSQGFINYCQKKIDASQTEFEKNVWSFLKVNFEDDSRGKYLELLGYRKEDLGKKIALALNKVDGANVALKDSDQVAQSDGEESPAAEEQLLGEHIKEEKEESEFLPSSGGTFNISVSGDIDGLITQALLTGNFESAVDLCLHDNRMADAIILAIAGGQELLARTQKKYFAKSQSKITRLITAVVMKNWKEIVESCDLKNWREALAAVLTYAKPDEFSALCDLLGTRLENEGDSLLQTQACLCYICAGNVEKLVACWTKAQDGSHPLSLQDLIEKVVILRKAVQLTQAMDTSTVGVLLAAKMSQYANLLAAQGSIAAALAFLPDNTNQPNIMQLRDRLCRAQGEPVAGHESPKIPYEKQQLPKGRPGPVAGHHQMPRVQTQQYYPHGENPPPPGFIMHGNVNPNAAGQLPTSPGHMHTQVPPYPQPQPYQPAQPYPFGTGGSAMYRPQQPVAPPTSNAYPNTPYISSASSYTGQSQLYAAQHQASSPTSSPATSFPPPPSSGASFQHGGPGAPPSSSAYALPPGTTGTLPAASELPASQRTGPQNGWNDPPALNRVPKKKKMPENFMPPVPITSPIMNPLGDPQSQMLQQQPSAPVPLSSQSSFPQPHLPGGQPFHGVQQPLGQTGMPPSFSKPNIEGAPGAPIGNTFQHVQSLPTKKITKKPIPDEHLILKTTFEDLIQRCLSSATDPQTKRKLDDASKRLEFLYDKLREQTLSPTITSGLHNIARSIETRNYSEGLTMHTHIVSTSNFSETSAFMPVLKVVLTQANKLGV
B2: Mios (protein, UniProt Q9NXC5 1-875)
chain: MSGTKPDILWAPHHVDRFVVCDSELSLYHVESTVNSELKAGSLRLSEDSAATLLSINSDTPYMKCVAWYLNYDPECLLAVGQANGRVVLTSLGQDHNSKFKDLIGKEFVPKHARQCNTLAWNPLDSNWLAAGLDKHRADFSVLIWDICSKYTPDIVPMEKVKLSAGETETTLLVTKPLYELGQNDACLSLCWLPRDQKLLLAGMHRNLAIFDLRNTSQKMFVNTKAVQGVTVDPYFHDRVASFYEGQVAIWDLRKFEKPVLTLTEQPKPLTKVAWCPTRTGLLATLTRDSNIIRLYDMQHTPTPIGDETEPTIIERSVQPCDNYIASFAWHPTSQNRMIVVTPNRTMSDFTVFERISLAWSPITSLMWACGRHLYECTEEENDNSLEKDIATKMRLRALSRYGLDTEQVWRNHILAGNEDPQLKSLWYTLHFMKQYTEDMDQKSPGNKGSLVYAGIKSIVKSSLGMVESSRHNWSGLDKQSDIQNLNEERILALQLCGWIKKGTDVDVGPFLNSLVQEGEWERAAAVALFNLDIRRAIQILNEGASSEKGDLNLNVVAMALSGYTDEKNSLWREMCSTLRLQLNNPYLCVMFAFLTSETGSYDGVLYENKVAVRDRVAFACKFLSDTQLNRYIEKLTNEMKEAGNLEGILLTGLTKDGVDLMESYVDRTGDVQTASYCMLQGSPLDVLKDERVQYWIENYRNLLDAWRFWHKRAEFDIHRSKLDPSSKPLAQVFVSCNFCGKSISYSCSAVPHQGRGFSQYGVSGSPTKSKVTSCPGCRKPLPRCALCLINMGTPVSSCPGGTKSDEKVDLSKDKKLAQFNNWFTWCHNCRHGGHAGHMLSWFRDHAECPVSACTCKCMQLDTTGNLVPAETVQP

The target in this assay is T1, Sec13 (human (endogenous in HBE41o-)) (UniProt P55735).
T1 sequence: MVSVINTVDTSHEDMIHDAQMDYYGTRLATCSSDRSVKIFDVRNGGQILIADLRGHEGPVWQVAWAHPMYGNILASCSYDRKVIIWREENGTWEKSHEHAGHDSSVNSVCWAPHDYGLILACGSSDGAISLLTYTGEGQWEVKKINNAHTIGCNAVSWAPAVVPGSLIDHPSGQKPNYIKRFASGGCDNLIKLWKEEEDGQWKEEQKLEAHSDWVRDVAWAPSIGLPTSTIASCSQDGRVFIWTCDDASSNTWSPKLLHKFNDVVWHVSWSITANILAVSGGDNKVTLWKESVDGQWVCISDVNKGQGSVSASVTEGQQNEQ
Briefly: affinity purification with mass spectrometry; CoPIT: Sec13 antibody cross-linked to GammaBind Plus Sepharose beads, HBE41o- lysate (4 mg total protein per IP), overnight at 4 °C; mock IP with beads without antibody as control; on-bead digestion, 2D LC-MS/MS; three biological replicates.
For Nup98 (from UniProt P52948 1-880), the binding result is “binds”.
For B1 the value was “binds”; for B2, “binds”.
